Experimental findings from US8865217B2, “Oral preparation comprising pioglitazone” (Takeda Pharmaceutical Company Limited, priority 2006, dated 2014) are described below.

The data set in a line: bitter taste suppressing effect of alkali metal chlorides on bitter drugs (finding of the inventors). The settings on record: for the named bitter drug.

Take cefotiam hexetil hydrochloride: the “bitter taste suppressing effect of alkali metal chlorides” value is “do not exhibit a bitter taste suppressing effect”.
